Here are results for one substance from publication PMC3575238.

No constants are given. Whether binding was seen depends on the method and setting. Binding seen in cells or lysates may run through a third protein. Some entries that bind do so weakly or less than the wild type.

For this test, the target named is T1, Myb-binding protein 1a (MYBBP1A) (human (endogenous in MCF-7)) (UniProt Q9BQG0).
T1 sequence: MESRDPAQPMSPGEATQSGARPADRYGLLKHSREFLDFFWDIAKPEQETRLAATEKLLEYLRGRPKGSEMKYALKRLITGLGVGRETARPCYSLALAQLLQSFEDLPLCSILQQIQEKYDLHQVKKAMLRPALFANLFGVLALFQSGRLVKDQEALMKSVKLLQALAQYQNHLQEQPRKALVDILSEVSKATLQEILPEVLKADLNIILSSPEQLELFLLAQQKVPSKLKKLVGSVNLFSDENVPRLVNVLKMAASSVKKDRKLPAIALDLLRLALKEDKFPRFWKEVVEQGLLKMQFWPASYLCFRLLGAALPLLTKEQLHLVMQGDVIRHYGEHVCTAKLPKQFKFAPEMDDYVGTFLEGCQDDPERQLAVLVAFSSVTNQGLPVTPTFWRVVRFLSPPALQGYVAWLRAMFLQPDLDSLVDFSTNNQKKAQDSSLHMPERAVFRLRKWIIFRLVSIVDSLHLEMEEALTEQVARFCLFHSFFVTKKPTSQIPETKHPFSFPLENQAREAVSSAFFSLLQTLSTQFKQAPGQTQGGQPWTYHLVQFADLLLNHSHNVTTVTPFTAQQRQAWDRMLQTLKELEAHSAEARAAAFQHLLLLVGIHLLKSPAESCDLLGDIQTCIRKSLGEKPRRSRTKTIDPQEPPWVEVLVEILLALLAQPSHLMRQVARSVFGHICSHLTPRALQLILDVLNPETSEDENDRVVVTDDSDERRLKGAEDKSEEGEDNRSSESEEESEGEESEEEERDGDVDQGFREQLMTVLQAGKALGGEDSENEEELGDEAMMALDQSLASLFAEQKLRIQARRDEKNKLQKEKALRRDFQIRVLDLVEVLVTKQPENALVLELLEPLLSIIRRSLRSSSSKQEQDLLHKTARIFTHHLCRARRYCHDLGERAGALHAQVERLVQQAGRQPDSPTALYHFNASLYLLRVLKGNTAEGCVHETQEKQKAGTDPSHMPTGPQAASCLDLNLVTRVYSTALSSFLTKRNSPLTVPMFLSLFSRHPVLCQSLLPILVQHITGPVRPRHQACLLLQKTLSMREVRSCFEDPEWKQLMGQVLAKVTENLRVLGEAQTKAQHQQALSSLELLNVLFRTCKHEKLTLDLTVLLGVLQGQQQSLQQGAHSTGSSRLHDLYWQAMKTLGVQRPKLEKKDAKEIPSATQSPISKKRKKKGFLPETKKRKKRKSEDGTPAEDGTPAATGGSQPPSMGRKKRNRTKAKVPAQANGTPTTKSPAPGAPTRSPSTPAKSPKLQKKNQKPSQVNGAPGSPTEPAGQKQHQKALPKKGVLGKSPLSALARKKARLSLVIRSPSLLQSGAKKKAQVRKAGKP
Description: co-IP; MCF-7 cells cultured under detached conditions for 2 h; lysed in TNE buffer (10 mM Tris-HCl pH 7.8, 1% NP-40, 0.15 M NaCl, 1 mM EDTA); immunoprecipitated with normal rabbit IgG or anti-MYBBP1A antibodies on protein G Sepharose; immunoblot for MYBBP1A and p53. (In western blotting, separated proteins are transferred to a membrane and probed.)

For the substance “Tumor suppressor p53 (from UniProt P04637 1-393)”, the binding entry is “binds”.
